{
  "source": "PubChem BioAssay AID540256",
  "about": "(National Center for Advancing Translational Sciences (NCATS), 2011)",
  "note": "About 3,700 (1.2%) of roughly 300,000 compounds were called active. The inconclusive results got no clear call from the source; some entries with a clear call stand among them for comparison. The call rests on the fitted dose curve; tested in HEK293 cells. Potencies beside an inconclusive call are fits to weak or partial responses and may not hold up. Potency means the concentration at half of the fitted maximal effect.",
  "data": [
    {"experiment": "qHTS for Inhibitors of binding or entry into cells for Lassa Virus; further: nearly all actives have a fitted effect of over 50% in size", "conditions": "Lassa virus pseudotype entry inhibition, cell reporter; series mostly up to 37.9 µM", "values": [
      {"molecule": "Nc1c(N(CCC2=CCCCC2)C(=O)C2CC2)c(=O)[nH]c(=O)n1Cc1ccccc1", "Potency": "inconclusive: 7.08 µM [inhibitor, partial curve, poor fit]"},
      {"molecule": "Cc1ccc(NC(=O)CC2Nc3ccccc3NC2=O)cc1Cl", "note": "(centres undefined)", "Potency": "inconclusive: 35.5 µM [inhibitor, single point]"},
      {"molecule": "O=C(CCn1c(=O)sc2ccccc21)NCCC1=CCCCC1", "Potency": "inactive"},
      {"molecule": "COCCNc1cc(N)c([N+](=O)[O-])cc1[N+](=O)[O-]", "Potency": "inconclusive: 1.26 µM [activator, single point]"},
      {"molecule": "Cc1ccc(Cl)cc1NC(=O)C(NS(=O)(=O)c1ccc2c(c1)CCC(=O)N2)c1ccccc1", "note": "(centres undefined)", "Potency": "inactive"},
      {"molecule": "O=C(Nc1cccc(Cl)c1)Nc1nnc(-c2ccncc2)s1", "Potency": "inconclusive: 25.1 µM [inhibitor, single point]"},
      {"molecule": "Cc1ccc2c(c1)c1c(c(=O)n(-c3ccccc3C)c(=O)n1Cc1cccc(F)c1)n2C", "Potency": "inconclusive: 2.24 µM [inhibitor, partial curve, poor fit]"},
      {"molecule": "O=C(c1ccc2c(c1)CCN2S(=O)(=O)c1ccccc1)N1CCN(c2ccccc2)CC1", "Potency": "inconclusive: 20 µM [inhibitor, single point]"},
      {"molecule": "O=C(NCCCN1CCCC1=O)c1cccc(S(=O)(=O)Nc2ccc(Br)cc2)c1", "Potency": "inconclusive: 35.5 µM [inhibitor, single point]"},
      {"molecule": "CCCCOc1ccccc1NC(=O)c1ccco1", "Potency": "inconclusive: 12.6 µM [inhibitor, partial curve, poor fit]"},
      {"molecule": "COc1ccc(C(=O)Nc2cccc(OC(=O)c3ccc(C)c(C)c3)c2)cc1", "Potency": "inconclusive: 17.8 µM [inhibitor, single point]"},
      {"molecule": "CCC(Sc1ccc(C(=O)O)cc1)C(=O)O", "note": "(centres undefined)", "Potency": "inactive"},
      {"molecule": "C/C(N)=C(/C#N)C(=O)COC(=O)c1ccccc1Cc1ccccc1", "Potency": "inactive"},
      {"molecule": "Cc1ccc(NC(=O)C2CCN(C(=O)c3cnn(-c4ccccc4)c3-n3cccc3)CC2)cc1Cl", "Potency": "inconclusive: 3.98 µM [activator, single point]"},
      {"molecule": "N/C(=N\\OC(=O)/C=C/c1ccc(Br)cc1)c1ccccn1", "Potency": "inconclusive: 5.8 µM [inhibitor, partial curve, poor fit]"},
      {"molecule": "Nc1oc2ccc(F)cc2c(=O)c1C=O", "Potency": "inconclusive: 0.891 µM [inhibitor, single point]"},
      {"molecule": "COc1ccc2sc(C)nc2c1NC(C)=O", "Potency": "inactive"},
      {"molecule": "Cc1nc2nc(NC(=O)C(C)C)[nH]n2c(=O)c1Cc1ccccc1", "Potency": "inconclusive: 3.55 µM [activator, partial curve, poor fit]"},
      {"molecule": "CC(=O)c1ccc(NC(=O)CC2Sc3ccccc3NC2=O)cc1", "note": "(centres undefined)", "Potency": "inactive"},
      {"molecule": "Cc1cc(CCC(=O)O)c(C)cc1CCC(=O)O", "Potency": "inactive"},
      {"molecule": "O=C(N/N=C/c1c(Cl)cccc1Cl)c1n[nH]c2c1CCCC2", "Potency": "inconclusive: 29.1 µM [inhibitor, single point]"},
      {"molecule": "COc1ccc(/C=C2\\CCc3ccccc3C2=O)cc1Cn1nc(C)cc1C", "Potency": "inconclusive: 29.1 µM [inhibitor, single point]"},
      {"molecule": "CNC(=S)NCCc1c[nH]c2ccc(OC)cc12", "Potency": "inconclusive: 12.6 µM [inhibitor, partial curve, poor fit]"},
      {"molecule": "O=C(NCc1ccco1)c1cc(-c2ccncc2)nc2ccccc12", "Potency": "inconclusive: 1.46 µM [inhibitor, partial curve, poor fit]"},
      {"molecule": "O=C(Nc1cccc(S(=O)(=O)N2CCCCC2)c1)c1ccc(OCC2CCCO2)cc1", "note": "(centres undefined)", "Potency": "inconclusive: 10 µM [inhibitor, partial curve, poor fit]"},
      {"molecule": "CSCC[C@H](NC(=O)c1cccc(S(=O)(=O)N2CCCCC2)c1)c1nc2ccccc2[nH]1", "Potency": "inconclusive: 35.5 µM [inhibitor, partial curve, poor fit]"},
      {"molecule": "Cc1cccn2c(=O)c(C=O)c(N3CCCCC3)nc12", "Potency": "inactive"},
      {"molecule": "O=C(/C=C/NNC(=O)c1ccccc1)c1ccc(Br)cc1", "Potency": "inconclusive: 35.5 µM [inhibitor, single point]"},
      {"molecule": "CC(=NNC(=O)c1ccncc1)c1ccc2ccccc2c1O", "Potency": "active: 5.01 µM"},
      {"molecule": "NC(=O)CN1C(=O)/C(=c2\\sc3nc(=O)c(Cc4ccccc4)nn3c2=O)c2ccccc21", "Potency": "inactive"},
      {"molecule": "COc1cccc(N2CCN(c3ccc4nnc(CCC(=O)N5CCC(C)CC5)n4n3)CC2)c1", "Potency": "inconclusive: 7.08 µM [inhibitor, partial curve]"},
      {"molecule": "O=C(Nc1ccc(N2CCOCC2)nc1)c1ccc(C(F)(F)F)cc1", "Potency": "inconclusive: 14.1 µM [inhibitor, single point]"},
      {"molecule": "COc1ccc(N(CC(=O)NCCSC2CCCCC2)S(=O)(=O)c2ccccc2)cc1OC", "Potency": "inactive"},
      {"molecule": "Cc1ccc2nc(C)cc(NCCO)c2c1", "Potency": "inactive"},
      {"molecule": "COc1ccc(NC(=O)c2c(Cl)nc3ccccn23)cc1", "Potency": "inconclusive: 22.4 µM [inhibitor, single point]"},
      {"molecule": "O=C(NN=C1CCCC1)c1sc2ccccc2c1Cl", "Potency": "inconclusive: 20 µM [inhibitor, partial curve, poor fit]"},
      {"molecule": "Cc1ccc(Nc2nc(CSc3nnc(-c4ccccc4)n3C)cs2)cc1", "Potency": "inconclusive: 35.5 µM [inhibitor, single point]"},
      {"molecule": "N#Cc1cnn2c(-c3ccc(Cl)cc3Cl)ccnc12", "Potency": "inactive"},
      {"molecule": "Cc1cc(Br)c(OCc2ccc(C(=O)N/N=C3\\CC(=O)CC(C)(C)C3)cc2)c(Br)c1", "Potency": "inconclusive: 6.31 µM [inhibitor, full curve, poor fit]"},
      {"molecule": "CCc1nnc(NS(=O)(=O)c2ccc(NC(=S)NC(=O)c3cccnc3)cc2)s1", "Potency": "inactive"},
      {"molecule": "Cc1ccc(CN2CCN(CC(=O)NCCCN3CCN(c4ccc(F)cc4)CC3)C2=O)cc1", "Potency": "inactive"},
      {"molecule": "CCOc1cc(NC(=O)c2cccs2)c(OCC)cc1NC(=O)CCC(=O)NCC1CCCO1", "note": "(centres undefined)", "Potency": "inactive"},
      {"molecule": "Cc1cc(N2CCN(C)CC2)nc2ccc(NC(=O)CCC3CCCC3)cc12", "Potency": "inconclusive: 3.98 µM [activator, partial curve, poor fit]"},
      {"molecule": "Cc1ccc(S(=O)(=O)N2CCOCC2)cc1NC(=O)Cn1c(=O)ccn(Cc2ccccc2)c1=O", "Potency": "inactive"},
      {"molecule": "COc1ccc(N(C(=O)CCl)C(C(=O)NCCc2ccccc2)c2cccs2)cc1", "note": "(centres undefined)", "Potency": "inconclusive: 11.6 µM [inhibitor, partial curve]"},
      {"molecule": "Cc1ccc(S(=O)(=O)N2CCN(C(=O)CNC(=O)c3sc4ccccc4c3Cl)CC2)cc1", "Potency": "inconclusive: 3.55 µM [inhibitor, partial curve, poor fit]"},
      {"molecule": "COc1ccc(C2SCC(=O)Nc3c2c(=O)[nH]n3C2CCCCC2)cc1", "note": "(centres undefined)", "Potency": "inconclusive: 20.6 µM [inhibitor, partial curve, poor fit]"},
      {"molecule": "O=C(c1cccs1)N1C[C@@H](O)[C@@H](n2cc(C3CC3)nn2)C[C@@H]1c1ccc(Cl)cc1", "Potency": "inconclusive: 3.53 µM [inhibitor, full curve, poor fit]"},
      {"molecule": "COCC(=O)NC1CCCCCC1", "Potency": "inconclusive: 6.31 µM [inhibitor, single point]"},
      {"molecule": "CC(=O)Nc1nonc1-c1nnc(SCC(=O)Nc2c(C)cccc2C)n1-c1ccccc1", "Potency": "inactive"},
      {"molecule": "CC(N=c1ccccn1C(=O)Nc1ccc(F)cc1)c1ccco1", "note": "(centres undefined)", "Potency": "inactive"},
      {"molecule": "Cn1cccc1C(=O)N/N=C/c1c(Cl)cccc1Cl", "Potency": "inconclusive: 6.31 µM [activator, single point]"},
      {"molecule": "Cc1ccccc1S(=O)(=O)Cc1ccc(C(=O)NCc2cccs2)o1", "Potency": "inconclusive: 8.2 µM [inhibitor, partial curve, poor fit]"},
      {"molecule": "CCc1ccc2c(Cl)c(C(=O)N/N=C/c3c[nH]c4ccccc34)sc2c1", "Potency": "active: 10 µM"},
      {"molecule": "Cc1ccc(-c2cc(C(=O)N3CC(C)OC(C)C3)c3ccccc3n2)o1", "note": "(centres undefined)", "Potency": "inactive"},
      {"molecule": "COc1cc(CCC(=O)Nc2nnc(C)s2)cc(OC)c1OC", "Potency": "inconclusive: 3.16 µM [inhibitor, single point]"},
      {"molecule": "COc1cccc(C(=O)NCCc2sc(-c3cccc(C)c3)nc2C)c1", "Potency": "inactive"},
      {"molecule": "CCNc1nc(SCc2ccccc2)nc(N2CCOCC2)n1", "Potency": "inconclusive: 12.6 µM [inhibitor, partial curve, poor fit]"},
      {"molecule": "Cc1ccc2c(CC(=O)Nc3c(C(=O)c4ccc(F)cc4)oc4ccccc34)coc2c1C", "Potency": "inactive"},
      {"molecule": "O=C(NC(=S)NCc1ccc(Cl)cc1Cl)c1ccco1", "Potency": "inconclusive: 12.6 µM [inhibitor, partial curve, poor fit]"},
      {"molecule": "COc1ccc(C(C(=O)Nc2ccc3c(c2)OCO3)N(C)C(=O)Cc2c[nH]c3ccccc23)cc1", "note": "(centres undefined)", "Potency": "inconclusive: 3.98 µM [inhibitor, partial curve, poor fit]"},
      {"molecule": "Cc1cc(NC(=O)C2CCCO2)ccc1Br", "note": "(centres undefined)", "Potency": "inconclusive: 10 µM [activator, partial curve]"},
      {"molecule": "COc1ccc(S(=O)(=O)N2CCCCC2)cc1NC(=O)c1ccc(Cl)nc1", "Potency": "inactive"},
      {"molecule": "CCOc1ccc(C(=O)NC(=S)Nc2ccc(NC(=O)CC)cc2)cc1[N+](=O)[O-]", "Potency": "inconclusive: 16.4 µM [inhibitor, single point]"},
      {"molecule": "O=C(c1cc2ccccc2oc1=O)N1CCCC1", "Potency": "inactive"},
      {"molecule": "Cc1c(C)c2ccc(O[C@@H]3O[C@H](CO)[C@H](O)[C@H](O)[C@H]3O)c(C)c2oc1=O", "Potency": "inactive"},
      {"molecule": "Cc1cccc2c1-c1sc(C(=O)Nc3ccccc3N3CCN(C)CC3)cc1CO2", "Potency": "inconclusive: 35.5 µM [inhibitor, single point]"},
      {"molecule": "O=C1c2ccccc2C(=O)N1CCCCSc1nnnn1-c1ccccc1", "Potency": "inconclusive: 12.6 µM [inhibitor, partial curve, poor fit]"},
      {"molecule": "CCOC(=O)c1c(C)oc2nc(C)nc(NCCCN3CCN(c4ccccc4OC)CC3)c12", "Potency": "inconclusive: 35.5 µM [inhibitor, single point]"}
    ]}
  ]
}
